Measured values reported in article PMC10786878.
Results are given in words; binding and its absence hold for the method and conditions named. Binding seen in cells or lysates may run through a third protein. Here binding means that the protein was enriched with, or labelled near, the bait; the list need not be complete. Blank lines part the entries; values can stand above or below the binder they belong to.

Sequences of proteins named here, by UniProt entry; tags and fusion partners are left off. A change or cut given only in a name is not applied to a line headed by its entry. Residues count along the entry.
UniProt P05305: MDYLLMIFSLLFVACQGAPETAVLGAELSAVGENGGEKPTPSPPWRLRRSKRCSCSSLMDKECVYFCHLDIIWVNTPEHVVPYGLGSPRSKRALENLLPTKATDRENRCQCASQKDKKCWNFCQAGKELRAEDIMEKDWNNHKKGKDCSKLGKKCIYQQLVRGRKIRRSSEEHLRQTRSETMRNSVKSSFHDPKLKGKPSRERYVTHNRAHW
UniProt P25101, residues 21-427: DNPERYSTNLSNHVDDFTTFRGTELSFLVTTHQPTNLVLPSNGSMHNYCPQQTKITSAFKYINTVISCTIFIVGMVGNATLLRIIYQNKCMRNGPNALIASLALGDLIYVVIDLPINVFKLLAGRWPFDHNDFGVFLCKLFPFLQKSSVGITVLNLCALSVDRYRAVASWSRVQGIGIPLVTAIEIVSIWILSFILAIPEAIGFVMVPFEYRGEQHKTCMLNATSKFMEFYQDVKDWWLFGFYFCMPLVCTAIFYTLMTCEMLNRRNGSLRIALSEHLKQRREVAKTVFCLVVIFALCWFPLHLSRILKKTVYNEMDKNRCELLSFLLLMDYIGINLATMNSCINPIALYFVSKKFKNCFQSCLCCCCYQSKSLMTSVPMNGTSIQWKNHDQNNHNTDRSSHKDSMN

Columns and labels:
[1] = biological target: EDN1 (human) (UniProt P05305); assay: affinity purification with mass spectrometry; IP of the index protein from HAEC or HCASMC lysate; the sentence does not tell in which of the two cell types the interactor was found; interactor: log2 FC >0 and FDR ≤0.1
[2] = biological target: EDN1 (human) (UniProt P05305); assay: affinity purification with mass spectrometry; IP of the index protein (antibody to the endogenous bait vs isotype IgG, or anti-FLAG M2 beads for the 3xFLAG-tagged bait vs mock transfection) from HCASMC (SMC) lysate, overnight at 4 °C; iTRAQ or TMT LC-MS/MS; interactor: log2 FC >0 and FDR ≤0.1
[3] = biological target: EDNRA (human (endogenous in HCASMC)) (UniProt P25101); assay: as above

binding [1]: binds
B1: SRSF3 (protein, UniProt P84103 1-164)
chain: MHRDSCPLDCKVYVGNLGNNGNKTELERAFGYYGPLRSVWVARNPPGFAFVEFEDPRDAADAVRELDGRTLCGCRVRVELSNGEKRSRNRGPPPSWGRRPRDDYRRRSPPPRRRSPRRRSFSRSRSRSLSRDRRRERSLSRERNHKPSRSFSRSRSRSRSNERK

binding [2]: binds
binding [3]: binds
B2: PALLD (protein, UniProt Q8WX93 1-1383)
chain: MSGTSSHESFYDSLSDMQEESKNTDFFPGLSAFLSQEEINKSLDLARRAIADSETEDFDSEKEISQIFSTSPASLCEHPSHKETKLGEHASRRPQDNRSTPVQPLAEKQTKSISSPVSKRKPAMSPLLTRPSYIRSLRKAEKRGAKTPSTNVKPKTPHQRKGGPQSQLCDKAANLIEELTSIFKAAKPRNRSPNGESSSPDSGYLSPKNQPSALLSASASQSPMEDQGEMEREVKSPGARHCYQDNQDLAVPHNRKSHPQPHSALHFPAAPRFIQKLRSQEVAEGSRVYLECRVTGNPTPRVRWFCEGKELHNTPDIQIHCEGGDLHTLIIAEAFEDDTGRYTCLATNPSGSDTTSAEVFIEGASSTDSDSESLAFKSRAGAMPQAQKKTTSVSLTIGSSSPKTGVTTAVIQPLSVPVQQVHSPTSYLCRPDGTTTAYFPPVFTKELQNTAVAEGQVVVLECRVRGAPPLQVQWFRQGSEIQDSPDFRILQKKPRSTAEPEEICTLVIAETFPEDAGIFTCSARNDYGSATSTAQLVVTSANTENCSYESMGESNNDHFQHFPPPPPILETSSLELASKKPSEIQQVNNPELGLSRAALQMQFNAAERETNGVHPSRGVNGLINGKANSNKSLPTPAVLLSPTKEPPPLLAKPKLDPLKLQQLQNQIRLEQEAGARQPPPAPRSAPPSPPFPPPPAFPELAACTPPASPEPMSALASRSAPAMQSSGSFNYARPKQFIAAQNLGPASGHGTPASSPSSSSLPSPMSPTPRQFGRAPVPPFAQPFGAEPEAPWGSSSPSPPPPPPPVFSPTAAFPVPDVFPLPPPPPPLPSPGQASHCSSPATRFGHSQTPAAFLSALLPSQPPPAAVNALGLPKGVTPAGFPKKASRTARIASDEEIQGTKDAVIQDLERKLRFKEDLLNNGQPRLTYEERMARRLLGADSATVFNIQEPEEETANQEYKVSSCEQRLISEIEYRLERSPVDESGDEVQYGDVPVENGMAPFFEMKLKHYKIFEGMPVTFTCRVAGNPKPKIYWFKDGKQISPKSDHYTIQRDLDGTCSLHTTASTLDDDGNYTIMAANPQGRISCTGRLMVQAVNQRGRSPRSPSGHPHVRRPRSRSRDSGDENEPIQERFFRPHFLQAPGDLTVQEGKLCRMDCKVSGLPTPDLSWQLDGKPVRPDSAHKMLVRENGVHSLIIEPVTSRDAGIYTCIATNRAGQNSFSLELVVAAKEAHKPPVFIEKLQNTGVADGYPVRLECRVLGVPPPQIFWKKENESLTHSTDRVSMHQDNHGYICLLIQGATKEDAGWYTVSAKNEAGIVSCTARLDVYTQWHQQSQSTKPKKVRPSASRYAALSDQGLDIKAAFQPEANPSHLTLNTALVESEDL
